Results taken from patent publication US20030176483A1, “Topical synergistic microbicide” (priority 2002, published 2003).
Some results were stated once for a whole list of compounds, not compound by compound. For at least one compound, name, drawing or mass did not settle the structure.

Tested on: Vero cells
Test: Cell death seen in the HSV inactivation plaque assays
Assay type: cell-based, African green monkey
Conditions: concentration 0.01% (printed 0.0 1%), data not shown
Experimental: HSV G and F strains were diluted to 200 pfu/ml with 5% MEM, respectively. […] Equal volumes of diluted virus and drugs were mixed and incubated at 37° C. water-bath for 1 h. One ml of the mixture was then used to infect confluent Vero cells in 6-well plates at 37° C. for 1 h. After infection, viral inoculum was removed and the cells washed with PBS. The cells were subsequently overlaid with 1.5 ml of 0.5% methylcellullose (diluted from 1% stock with 2×culture medium) for plaque assay.

CCCCCCCCCCCCOS(=O)(=O)[O-].[Na+] [SDS]
cell death: 50-100%
